Experimental findings from article PMC10861311 are described below.

The labels stand for the following.
B1: histidine kinase YpdA (protein, UniProt P0AA93 1-565)
chain: MHEIFNMLLAVFDRAALMLICLFFLIRIRLFRELLHKSAHSPKELLAVTAIFSLFALFSTWSGVPVEGSLVNVRIIAVMSGGILFGPWVGIITGVIAGIHRYLIDIGGVTAIPCFITSILAGCISGWINLKIPKAQRWRVGILGGMLCETLTMILVIVWAPTTALGIDIVSKIGIPMILGSVCIGFIVLLVQSVEGEKEASAARQAKLALDIANKTLPLFRHVNSESLRKVCEIIRDDIHADAVAITNTDHVLAYVGVGEHNYQNGDDFISPTTRQAMNYGKIIIKNNDEAHRTPEIHSMLVIPLWEKGVVTGTLKIYYCHAHQITSSLQEMAVGLSQIISTQLEVSRAEQLREMANKAELRALQSKINPHFLFNALNAISSSIRLNPDTARQLIFNLSRYLRYNIELKDDEQIDIKKELYQIKDYIAIEQARFGDKLTVIYDIDEEVNCCIPSLLIQPLVENAIVHGIQPCKGKGVVTISVAECGNRVRIAVRDTGHGIDPKVIERVEANEMPGNKIGLLNVHHRVKLLYGEGLHIRRLEPGTEIAFYIPNQRTPVASQATLLL
B2: histidine kinase precursor ZraS (protein, UniProt P14377 1-465)
chain: MRFMQRSKDSLAKWLSAILPVVIVGLVGLFAVTVIRDYGRASEADRQALLEKGNVLIRALESGSRVGMGMRMHHVQQQALLEEMAGQPGVLWFAVTDAQGIIILHSDPDKVGRALYSPDEMQKLKPEENSRWRLLGKTETTPALEVYRLFQPMSAPWRHGMHNMPRCNGKAVPQVDAQQAIFIAVDASDLVATQSGEKRNTLIILFALATVLLASVLSFFWYRRYLRSRQLLQDEMKRKEKLVALGHLAAGVAHEIRNPLSSIKGLAKYFAERAPAGGEAHQLAQVMAKEADRLNRVVSELLELVKPTHLALQAVDLNTLINHSLQLVSQDANSREIQLRFTANDTLPEIQADPDRLTQVLLNLYLNAIQAIGQHGVISVTASESGAGVKISVTDSGKGIAADQLDAIFTPYFTTKAEGTGLGLAVVHNIVEQHGGTIQVASQEGKGSTFTLWLPVNITRKDPQG
B3: multidrug efflux transporter outer membrane subunit MdtP (protein, UniProt P32714 24-488)
chain: CALVRKDSAPHQQLKPEQIKLADDIHLASSGWPQAQWWKQLNDPQLDALIQRTLSGSHTLAEAKLREEKAQSQADLLDAGSQLQVAALGMLNRQRVSANGFLSPYSMDAPALGMDGPYYTEATVGLFAGLDLDLWGVHRSAVAAAIGAHNAALAETAAVELSLATGVAQLYYSMQASYQMLDLLEQTHDVIDYAVKAHQSKVAHGLEAQVPFHGARAQILAVDKQIVAVKGQITETRESLRALIGAGASDMPEIRPVALPQVQTGIPATLSYELLARRPDLQAMRWYVQASLDQVDSARALFYPSFDIKAFFGLDSIHLHTLFKKTSRQFNFIPGLKLPLFDGGRLNANLEGTRAASNMMIERYNQSVLNAVRDVAVNGTRLQTLNDEREMQAERVEATRFTQRAAEAAYQRGLTSRLQATEARLPVLAEEMSLLMLDSRRVIQSIQLMKSLGGGYQAGPVVEKK
B4: multidrug efflux RND transporter permease AcrD (protein, UniProt P24177 1-1037)
chain: MANFFIDRPIFAWVLAILLCLTGTLAIFSLPVEQYPDLAPPNVRVTANYPGASAQTLENTVTQVIEQNMTGLDNLMYMSSQSSGTGQASVTLSFKAGTDPDEAVQQVQNQLQSAMRKLPQAVQNQGVTVRKTGDTNILTIAFVSTDGSMDKQDIADYVASNIQDPLSRVNGVGDIDAYGSQYSMRIWLDPAKLNSFQMTAKDVTDAIESQNAQIAVGQLGGTPSVDKQALNATINAQSLLQTPEQFRDITLRVNQDGSEVRLGDVATVEMGAEKYDYLSRFNGKPASGLGVKLASGANEMATAELVLNRLDELAQYFPHGLEYKVAYETTSFVKASIEDVVKTLLEAIALVFLVMYLFLQNFRATLIPTIAVPVVLMGTFSVLYAFGYSVNTLTMFAMVLAIGLLVDDAIVVVENVERIMSEEGLTPREATRKSMGQIQGALVGIAMVLSAVFVPMAFFGGTTGAIYRQFSITIVAAMVLSVLVAMILTPALCATLLKPLKKGEHHGQKGFFAWFNQMFNRNAERYEKGVAKILHRSLRWIVIYVLLLGGMVFLFLRLPTSFLPLEDRGMFTTSVQLPSGSTQQQTLKVVEQIEKYYFTHEKDNIMSVFATVGSGPGGNGQNVARMFIRLKDWSERDSKTGTSFAIIERATKAFNQIKEARVIASSPPAISGLGSSAGFDMELQDHAGAGHDALMAARNQLLALAAENPELTRVRHNGLDDSPQLQIDIDQRKAQALGVAIDDINDTLQTAWGSSYVNDFMDRGRVKKVYVQAAAPYRMLPDDINLWYVRNKDGGMVPFSAFATSRWETGSPRLERYNGYSAVEIVGEAAPGVSTGTAMDIMESLVKQLPNGFGLEWTAMSYQERLSGAQAPALYAISLLVVFLCLAALYESWSVPFSVMLVVPLGVIGALLATWMRGLENDVYFQVGLLTVIGLSAKNAILIVEFANEMNQKGHDLFEATLHACRQRLRPILMTSLAFIFGVLPMATSTGAGSGGQHAVGTGVMGGMISATILAIYFVPLFFVLVRRRFPLKPRPE
B5: transcriptional regulator AraC (protein, UniProt P0A9E0 1-292)
chain: MAEAQNDPLLPGYSFNAHLVAGLTPIEANGYLDFFIDRPLGMKGYILNLTIRGQGVVKNQGREFVCRPGDILLFPPGEIHHYGRHPEAREWYHQWVYFRPRAYWHEWLNWPSIFANTGFFRPDEAHQPHFSDLFGQIINAGQGEGRYSELLAINLLEQLLLRRMEAINESLHPPMDNRVREACQYISDHLADSNFDIASVAQHVCLSPSRLSHLFRQQLGISVLSWREDQRISQAKLLLSTTRMPIATVGRNVGFDDQLYFSRVFKKCTGASPSEFRAGCEEKVNDVAVKLS

Results are given in words; binding and its absence hold for the method and conditions named. Binding seen in cells or lysates may run through a third protein. Here binding means that the protein was enriched with, or labelled near, the bait; the list need not be complete. Sequences can lack the tags named with a protein.

The test concerns the target GST-NDM-5 fusion protein (E. coli). Briefly: affinity purification with mass spectrometry; about 25 ug GST-NDM-5 (or GST as control) immobilised on glutathione resin; 25 ug total protein from E. coli added; 4 °C for 4 h; washed 3 times with PBS; eluate analysed by SDS-PAGE (silver stain) and mass spectrometry (MASCOT, UniProt); proteins also found with GST alone removed; only the target purified.
As to B1, the binding entry was “binds”.

On to B2, for which the binding result is recorded as “binds”.

On to B3, for which the binding result is reported as “binds”.

Turning to B4, the binding entry was “binds”.

As for B5, the binding entry is on record as “binds”.
